Reference: PubChem BioAssay AID1671190 (National Center for Advancing Translational Sciences (NCATS), 2021)
In all, about 580,000 compounds went through this assay and about 6,100 (1.1%) were called active. The shares of active, inactive and inconclusive entries below differ from those in the screen. Calls follow the shape of the dose curve; as a rule, active = well fitted inhibition curve with a large enough effect; inconclusive = small, poorly fitted or top-dose-only effect, or another doubt; inactive = no such curve, though single readings can be large or run the other way. Potencies beside an inconclusive call are fits to weak or partial responses and may not hold up.

Amino acid sequences for entries named in this document (tags omitted). A change or cut given only in a name is not applied to a line headed by its entry.
UniProt P18054: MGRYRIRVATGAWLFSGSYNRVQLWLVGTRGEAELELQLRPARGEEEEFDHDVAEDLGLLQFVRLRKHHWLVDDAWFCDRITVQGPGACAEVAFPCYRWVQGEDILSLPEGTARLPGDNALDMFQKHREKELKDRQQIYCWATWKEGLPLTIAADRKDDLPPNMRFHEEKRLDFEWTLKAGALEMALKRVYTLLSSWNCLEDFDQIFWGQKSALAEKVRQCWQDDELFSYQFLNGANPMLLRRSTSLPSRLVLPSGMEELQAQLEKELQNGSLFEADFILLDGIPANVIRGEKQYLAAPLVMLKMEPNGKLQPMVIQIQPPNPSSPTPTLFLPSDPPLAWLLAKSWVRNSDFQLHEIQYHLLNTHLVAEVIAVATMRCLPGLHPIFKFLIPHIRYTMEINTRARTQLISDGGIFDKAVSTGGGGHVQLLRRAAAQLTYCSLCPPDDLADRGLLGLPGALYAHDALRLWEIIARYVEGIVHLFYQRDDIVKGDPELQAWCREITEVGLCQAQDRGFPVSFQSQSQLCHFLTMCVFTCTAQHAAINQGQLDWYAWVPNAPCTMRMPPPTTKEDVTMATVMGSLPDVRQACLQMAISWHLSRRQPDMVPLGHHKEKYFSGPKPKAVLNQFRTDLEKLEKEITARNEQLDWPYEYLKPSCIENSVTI

biological target: Polyunsaturated fatty acid lipoxygenase ALOX12 (Homo sapiens) (UniProt P18054); test: Primary qHTS assay for inhibitors of human arachidonate 12S-lipoxygenase (ALOX12): Round 2; details: purified 12hLO, xylenol orange hydroperoxide absorbance; activity change, negative = inhibition: at 108 µM (top of the series) unless noted
In short: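 Purified human 12hLO (150 nM final) in 25 mM Hepes, 0.01% Triton X-100, pH 7.0 was preincubated 15 min at room temperature with compound. Then 40 uM arachidonic acid was added, 30 min. Hydroperoxide was read by Fe-XO absorbance ratio 573/405 nm.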
% is scaled to controls: 0 for no effect and ±100 for the full control effect; potency is read from the fitted curve at half-maximal effect.

Structure (SMILES)	Potency	activity change, negative = inhibition
COc1ccc(N/N=C(\C=N\O)C(=O)c2ccc(OC)cc2)cc1	inconclusive: 7.94 µM [inhibitor, partial curve, poor fit]	
COc1ccc2nc(/C=N/NC(=O)CCNC(=O)OC(C)(C)C)ccc2c1	inconclusive: 79.4 µM [inhibitor, partial curve, poor fit]	
c1ccc(CNc2nc(NCCOc3ccccc3)c3sccc3n2)cc1	inconclusive: 44.7 µM [inhibitor, partial curve, poor fit]	
O=C(NCCc1ccc(F)cc1)c1ccc(S(=O)(=O)N2CCCC2)cc1		inactive: -3.61%
CC1CCCCN1C(=O)COC(=O)C1CCN(S(=O)(=O)c2ccc(Cl)c(C(F)(F)F)c2)CC1 (configuration not stated)	inconclusive: 5.62 µM [inhibitor, full curve, poor fit]	
COc1ccccc1NC(=O)CC(C)S(=O)(=O)c1ccc2c(c1)CCN2C(=O)C1CC1 (configuration not stated)		inactive: 2.3%
O=C(c1cccc(Cl)c1)N1CCN(Cc2ccccc2F)CC1	inconclusive: 0.631 µM [inhibitor, full curve, poor fit]	
CN(C)c1cc(-c2cccc(NS(C)(=O)=O)c2)ncn1	active: 35.5 µM	
N#Cc1ncc(C(F)(F)F)cc1Oc1cccnc1	inconclusive: 79.4 µM [inhibitor, partial curve, poor fit]	
Cc1occc1C(=O)N1CCCC(O)(CNC(=O)N2CCOCC2)CC1 (configuration not stated)		inactive: -4.42%
O=C(NCc1nnc2n1CCC2)c1ccc2nc(-c3ccc(F)cc3)cn2c1		inactive: 52.6%
Cn1c(=O)c2c(C(=O)O)cc(-c3ccccc3)nc2n(Cc2ccccc2)c1=O	inconclusive: 25.1 µM [inhibitor, partial curve, poor fit]	
O=C1CCSc2ccc(S(=O)(=O)Nc3ccc(Cl)c(C(F)(F)F)c3)cc2N1	inconclusive: 126 µM [inhibitor, partial curve, poor fit]	
O=[N+]([O-])c1ccc(C=NNC(=S)NN=Cc2ccc([N+](=O)[O-])cc2)cc1	inconclusive: 50.1 µM [inhibitor, partial curve, poor fit]	
O=C(Nc1cccc(Cl)c1)NC1CCN(C2CCCCC2)C1 (configuration not stated)	inconclusive: 2.82 µM [inhibitor, partial curve, poor fit]	
O=C(NC1CC1)C1CCN(S(=O)(=O)c2ccc(Cl)cc2)CC1		inactive: -11.8%
CN(C)c1ccc2ncccc2c1	active: 5.01 µM	
Oc1c(/C=N/c2ccccn2)sc2ccccc12	inconclusive: 100 µM [inhibitor, partial curve, poor fit]	
O=C(NCc1cccc(F)c1)c1nc2c(o1)CCN(Cc1cc(F)ccc1F)CC2	inconclusive: 6.31 µM [inhibitor, full curve]	
O=C1[C@H]2[C@@H](c3ccccc3)N[C@]3(CCCN(Cc4ccc(F)cc4)C3=O)[C@H]2C(=O)N1Cc1ccccc1	inconclusive: 50.1 µM [inhibitor, single point]	
O=C(Nc1ccccc1C(F)(F)F)NC1(C(=O)N2CCOCC2)CCCCC1	inconclusive: 35.5 µM [inhibitor, partial curve, poor fit]	
CCc1ccccc1NC(=O)c1ccc2c(c1)CCN2S(C)(=O)=O	inconclusive: 44.7 µM [inhibitor, partial curve, poor fit]	
CCOC(=O)c1sc2nc(C(C)N3CCCC3)[nH]c(=O)c2c1C (configuration not stated)		inactive: 34.7%

Twelve compounds from above, sorted by count of non-hydrogen atoms, descending.
Structure (SMILES)	Potency	activity change, negative = inhibition
COc1ccccc1NC(=O)CC(C)S(=O)(=O)c1ccc2c(c1)CCN2C(=O)C1CC1 (configuration not stated)		inactive: 2.3%
O=C(NCc1cccc(F)c1)c1nc2c(o1)CCN(Cc1cc(F)ccc1F)CC2	inconclusive: 6.31 µM [inhibitor, full curve]	
Cn1c(=O)c2c(C(=O)O)cc(-c3ccccc3)nc2n(Cc2ccccc2)c1=O	inconclusive: 25.1 µM [inhibitor, partial curve, poor fit]	
O=C(Nc1ccccc1C(F)(F)F)NC1(C(=O)N2CCOCC2)CCCCC1	inconclusive: 35.5 µM [inhibitor, partial curve, poor fit]	
O=C1CCSc2ccc(S(=O)(=O)Nc3ccc(Cl)c(C(F)(F)F)c3)cc2N1	inconclusive: 126 µM [inhibitor, partial curve, poor fit]	
O=[N+]([O-])c1ccc(C=NNC(=S)NN=Cc2ccc([N+](=O)[O-])cc2)cc1	inconclusive: 50.1 µM [inhibitor, partial curve, poor fit]	
CCc1ccccc1NC(=O)c1ccc2c(c1)CCN2S(C)(=O)=O	inconclusive: 44.7 µM [inhibitor, partial curve, poor fit]	
CCOC(=O)c1sc2nc(C(C)N3CCCC3)[nH]c(=O)c2c1C (configuration not stated)		inactive: 34.7%
O=C(Nc1cccc(Cl)c1)NC1CCN(C2CCCCC2)C1 (configuration not stated)	inconclusive: 2.82 µM [inhibitor, partial curve, poor fit]	
CN(C)c1cc(-c2cccc(NS(C)(=O)=O)c2)ncn1	active: 35.5 µM	
N#Cc1ncc(C(F)(F)F)cc1Oc1cccnc1	inconclusive: 79.4 µM [inhibitor, partial curve, poor fit]	
CN(C)c1ccc2ncccc2c1	active: 5.01 µM	

(more compounds)

Structure (SMILES)	Potency	activity change, negative = inhibition
COc1ccc(CC(=O)Nc2cc(Cl)ccc2O)cc1	inconclusive: 44.7 µM [inhibitor, partial curve, poor fit]	
C=C(C)CC1Nc2ccccc2NC1CC(=C)C (configuration not stated)	active: 28.2 µM	
COC(=O)c1ccc(-c2ccco2)n1Cc1cccc(C)c1	inconclusive: 44.7 µM [inhibitor, partial curve, poor fit]	
COc1ccc(C=NNC(=S)NN=Cc2ccc(OC)c(OC)c2)cc1OC	inconclusive: 50.1 µM [inhibitor, partial curve, poor fit]	
Cc1ccc(-c2csc(N3C(=N)SCC3=O)n2)cc1	inconclusive: 44.7 µM [inhibitor, single point]	
CCCCCCCCN1C(=O)[C@H](CC(=O)N2CCSCC2)C[C@@]2(C(=O)OCC)CCCC=C12		inactive: -20.4%
CCc1ccc(-c2cc(C(=O)O)c3ccc(C)c(C)c3n2)cc1	inconclusive: 50.1 µM [inhibitor, partial curve, poor fit]	
CCN1C(=O)Cc2cc(C(=O)NCc3ccc(F)cc3Cl)ccc21		inactive: 39%
CC(C)Cc1nc2oc3c(N(C)CCO)ncnc3c2c2c1CCC2		inactive: 17.9%
Nc1cc(Cl)ccc1OCC1CCCO1 (configuration not stated)		inactive: 2.64%
COc1cc(C2CC(=O)Nc3nc(N4CCCCC4)sc32)cc(OC)c1OC (configuration not stated)	inconclusive: 0.794 µM [inhibitor, partial curve, poor fit]	
CSc1cccc(N2C(=O)[C@@H]3C[C@@H](NC(=O)c4cccn4C)CCN3C2=O)c1	inconclusive: 12.6 µM [inhibitor, full curve, poor fit]	
Cc1ccc(C)c(NC(=O)CN(C)S(=O)(=O)c2cccc3nsnc23)c1		inactive: -22.5%
CCN(CC)c1nc2ccccc2nc1C(=O)Nc1ccc(C(C)=O)cc1	inconclusive: 126 µM [inhibitor, single point]	
Cc1cc(SCC(=O)Nc2sccc2C(N)=O)nc2ccccc12	inconclusive: 39.8 µM [inhibitor, single point]	
Cc1ccc(OCC(=O)c2ccc(Cl)s2)c([N+](=O)[O-])n1	inconclusive: 44.7 µM [inhibitor, partial curve, poor fit]	
Clc1ccc2nc(C3CCCCC3)c(Cc3ccsc3)n2c1	inconclusive: 70.8 µM [inhibitor, single point]	
COc1ccc(Cl)cc1NC(=O)N1CCN(c2nc3ccccc3n2Cc2ccccc2)CC1	inconclusive: 50.1 µM [inhibitor, partial curve, poor fit]	
CC(C)n1c(=O)c2c(O)cc(=O)oc2c2ccccc21		inconclusive: -38.7% [inhibitor]
CN(CC(=O)NC(C)(C)C)C(=O)c1cc(=O)[nH]c2ccccc12		inactive: 3.14%
CCOc1ccc(/C=N/Nc2ccccn2)cc1		inactive: -6.98%
Cc1ccc(-n2nnc(C(=O)N(C)c3ccccc3)c2C)cc1Cl		inconclusive: -30.1% [inhibitor]
C/C(=N\NC(=O)C(NC(=O)c1ccccc1)C(C)C)c1ccccc1 (configuration not stated)	inconclusive: 100 µM [inhibitor, single point]	

Structure (SMILES)	Potency	activity change, negative = inhibition
Cc1ccc(C(CNS(=O)(=O)c2ccc(Cl)cc2)N2CCN(C)CC2)cc1 (configuration not stated)	inconclusive: 17.8 µM [inhibitor, partial curve, poor fit]	
Cc1nn(S(=O)(=O)c2ccc(C(C)C)cc2)c(C)c1S(=O)(=O)N1CCOCC1	inconclusive: 39.8 µM [inhibitor, full curve, poor fit]	
Cc1cccc(NC(=O)c2n[nH]c(=O)c3ccccc23)c1		inactive: 32.6%
O=C(c1ccccn1)N1C[C@@H]2C[C@H](C1)c1ccc(NS(=O)(=O)Cc3ccccc3)c(=O)n1C2	inconclusive: 14.1 µM [inhibitor, partial curve, poor fit]	
COc1ccc(COc2ccc(C#N)cc2)c(Br)c1OC		inactive: 17.5%
CCCc1nc(C(=O)N2CCCCC2C(=O)OCC)cs1 (configuration not stated)		inactive: 19.9%
COC(=O)c1ccc(S(=O)(=O)c2ccccc2)c(N)c1	inconclusive: 2 µM [inhibitor, full curve, poor fit]	
O=C(Nc1nc(-c2ccc(Cl)cc2)cs1)C1=COCCO1	inconclusive: 35.5 µM [inhibitor, partial curve, poor fit]	
Cc1ccc(C(=O)NC(=S)Nc2ccc(N3CCOCC3)cc2)cc1	inconclusive: 15.8 µM [inhibitor, full curve, poor fit]	
CCCCn1c(SCC(=O)N2CCCc3ccccc32)nc2c1c(=O)n(C)c(=O)n2C		inactive: 16.1%
COC(=O)c1ccc(NC(=S)NC2CCCCC2)cc1		inactive: -12.3%
Cc1ccc(C)c(NC(=O)Cn2c(=O)n(CCC(C)C)c(=O)c3cccnc32)c1	inconclusive: 0.447 µM [inhibitor, full curve, poor fit]	
O=C(CCN1C(=O)/C(=C/c2ccc(F)cc2)SC1=S)NCCc1cnc[nH]1	inconclusive: 56.2 µM [inhibitor, partial curve, poor fit]	
Cc1nn(Cc2cccc(F)c2)c(C)c1NC(=O)c1ccc(COc2ccccc2Cl)cc1	inconclusive: 3.55 µM [inhibitor, full curve, poor fit]	
CCOC(=O)c1cccn1C1C(=O)N(Cc2ccc(C(C)C)cc2)c2c(F)cccc21 (configuration not stated)	inconclusive: 44.7 µM [inhibitor, partial curve, poor fit]	
COc1ccccc1NC(=O)Cn1cc(S(=O)(=O)Cc2ccccc2)c2ccccc21	inconclusive: 50.1 µM [inhibitor, partial curve, poor fit]	
O=C(COC(=O)CNS(=O)(=O)c1ccccc1)Nc1ncc(Cl)cc1Cl	inconclusive: 141 µM [inhibitor, partial curve, poor fit]	
O=C(Nc1ccc2ccccc2c1)C(c1ccc(C(F)(F)F)cc1)n1c(=O)c(-c2cc3ccccc3[nH]2)nc2ccccc21 (configuration not stated)	inconclusive: 89.1 µM [inhibitor, single point]	
Cc1nn(-c2ccccc2)c2c1C(c1ccc(O)c(O)c1)N1C(=N2)C(Nc2ccccc2)=Nc2ccccc21 (configuration not stated)		inactive: 270%
CN(C)c1nc(NCCNS(=O)(=O)c2ccc(Cl)cc2)ncc1F		inactive: 59.6%
CC(C)OC(=O)COc1ccc2c(=O)c(-c3ccc(Cl)cc3)coc2c1		inactive: 13.8%
